These results are taken from patent US20160257744A1.

The chains behind the UniProt entries cited, without tags or fusion partners. Residues count along the entry.
UniProt P05113, residues 20-134: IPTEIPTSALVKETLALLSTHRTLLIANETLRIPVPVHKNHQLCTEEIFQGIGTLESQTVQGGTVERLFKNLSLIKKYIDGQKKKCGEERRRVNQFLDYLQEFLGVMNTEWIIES

These are yes or no findings as the source states them, for the method shown. Some binding calls cover weakened binding; strength is not graded here.

For assay [1], the target named is interleukin 5 (IL5) (human) (UniProt P05113). The assay can be described thus: ELISA, IgG at 100 nM on immobilized antigen, compared to E7 (FIG. 8A).
The target is the same in assay [2]. The assay can be described thus: ELISA: IgG at 100 nM on immobilized protein, anti-IgG-HRP [panel A].
The target is the same in assay [3]. The assay can be described thus: blocking ELISA: biotinylated IL5 binding to coated IL5 receptor in the presence of 50 nM antibody or PBS, streptavidin-HRP [panel B]. For orientation: ELISA stands for enzyme-linked immunosorbent assay.
Assay [4] has the same target. Briefly: ELISA, IgG1 at 250 nM on coated antigen (FIG. 5).
For assay [5] the target is unchanged. The assay can be described thus: ELISA: human IgG1 at 250 nM on protein-coated wells, anti-Fc-HRP.
For assay [6] the target is unchanged. Briefly: blocking ELISA: biotinylated IL5 receptor α binding to immobilized IL5 in the presence of IgG (0, 10, 50 nM), streptavidin-HRP.
Assay [7] shares this target. The assay can be described thus: phage clone screening.
For assay [8] the target is unchanged. Briefly: phage binding competition assay, interleukin in solution against immobilized interleukin.

B1: 1C60, affinity-matured variant of E7, as IgG (antibody, V domains shown)
VH: EVQLVQSGAEVKKPGASVKVSCKASGYTFTDYFIHWVRQAPGQGLEWIAGIVYDATGFTVYADDFKGRVTITRDTSTSTAYLELSSLRSEDTAVYYCARGGIFYGMDYWGQGTLVTVSS
VL: DIQMTQSPSSLSASVGDRVTITCKASQSVINDAAWYQQKPGKAPKLLIYYTSHRYTGVPSRFSGSGSGTDFTLTISSLQEDFATYYCQQDYKHPWTFGQGTKVEIKR
On to B1, for which the binding entry in assay [1], in assay [2] and in assay [3] was “binds” each time.

B2: B1 as human IgG1 (antibody, V domains shown)
VH: EVQLVQSGAEVKKPGASVKVSCKASGYTFTDYLMHWVRQAPGQGLEWIAVIVSITGRTYYADDFKGRVTITRDTSTSTAYLELSSLRSEDTAVYYCARGGIFYGMDYWGQGTLVTVSS
VL: DIQMTQSPSSLSASVGDRVTITCKASQSVINDAAWYQQKPGKAPKLLIYYTSHRYTGVPSRFSGSGSGTDFTLTISSLQEDFATYYCQQDYTPFPLTFGQGTKVEIKR
Consider B2, for which the binding entry in assay [4], in assay [5] and in assay [6] was “binds” each time.

B3: B1, anti-IL4/IL5 dual specific variant of hu19C11, Fab displayed on phage (Fab, V domains shown)
VH: EVQLVQSGAEVKKPGASVKVSCKASGYTFTDYLMHWVRQAPGQGLEWIAVIVSITGRTYYADDFKGRVTITRDTSTSTAYLELSSLRSEDTAVYYCARGGIFYGMDYWGQGTLVTVSS
VL: DIQMTQSPSSLSASVGDRVTITCKASQSVINDAAWYQQKPGKAPKLLIYYTSHRYTGVPSRFSGSGSGTDFTLTISSLQEDFATYYCQQDYTPFPLTFGQGTKVEIKR
Take B3: the binding entry in assay [7] and in assay [8] was “binds” throughout.
